Series [1] concerns T1, voltage-sensitive sodium channel (site 2).
T1 construct: gene Scn1a; native preparation from rat cerebral cortex; subtype not defined
It counts as binding. The conditions noted are these: 100 µM, rat cerebral cortex preparation, in duplicate (Cerep).

Series [2] deals with T2, L-type Ca2+ channel (dihydropyridine site).
T2 construct: gene Cacna1c
Kind of series: radioligand displacement, [3H]nitrendipine. The note with it: 100 µM, rat cerebral cortex preparation, in duplicate (Cerep).

Structures can show the parent of a compound that is named as a salt.

`O=C1CC(c2cc3ccccc3s2)C(=O)N1CCN1CCOCC1` (stereo not shown) [compound 32, 3-(Benzo[b]thiophen-2-yl)-1-(2-morpholinoethyl)pyrrolidine-2,5-dione hydrochloride]: the “Na^+ Channel (Site 2) / % Inhibition of Control Specific Binding” value in series [1] was 15.8%. Moreover, the “L-Type Ca^2+ Channel / % Inhibition of Control Specific Binding” value in series [2] is on record as 28.2%.

For `O=C1CC(c2cc3ccccc3s2)C(=O)N1CCCN1CCOCC1` (stereo not shown) [compound 33, 3-(Benzo[b]thiophen-2-yl)-1-(3-morpholinopropyl)pyrrolidine-2,5-dione hydrochloride], in series [1], the “Na^+ Channel (Site 2) / % Inhibition of Control Specific Binding” value worked out at 62.2%. Moreover, the “L-Type Ca^2+ Channel / % Inhibition of Control Specific Binding” value in series [2] turned out to be 12.2%.

For the origin of these results see article PMC11597642, “Discovery of New 3-(Benzo[b]Thiophen-2-yl)Pyrrolidine-2,5-Dione Derivatives as Potent Antiseizure and Antinociceptive Agents—In Vitro and In Vivo Evaluation” (Pharmaceuticals, 2024).
